The target of this experiment is FLAG-tagged PGRMC1 (human progesterone receptor membrane component 1) (human) (UniProt O00264). The experiment in a line: affinity purification with mass spectrometry; FLAG-PGRMC1 (human) stably expressed in murine MEL cells as bait; isolated mitochondria lysed, affinity purification by FLAG; prey filtered with CRAPome, fold-change threshold 1.5; empty-vector cells as control.

Amino acid sequences for entries named in this document (tags omitted). Residues count along the entry.
UniProt O00264: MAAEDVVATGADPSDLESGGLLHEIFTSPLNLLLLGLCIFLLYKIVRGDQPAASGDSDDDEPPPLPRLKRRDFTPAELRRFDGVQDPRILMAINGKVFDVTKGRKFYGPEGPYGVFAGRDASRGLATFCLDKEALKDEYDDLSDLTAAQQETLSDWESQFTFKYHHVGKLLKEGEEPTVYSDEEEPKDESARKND
UniProt O35379: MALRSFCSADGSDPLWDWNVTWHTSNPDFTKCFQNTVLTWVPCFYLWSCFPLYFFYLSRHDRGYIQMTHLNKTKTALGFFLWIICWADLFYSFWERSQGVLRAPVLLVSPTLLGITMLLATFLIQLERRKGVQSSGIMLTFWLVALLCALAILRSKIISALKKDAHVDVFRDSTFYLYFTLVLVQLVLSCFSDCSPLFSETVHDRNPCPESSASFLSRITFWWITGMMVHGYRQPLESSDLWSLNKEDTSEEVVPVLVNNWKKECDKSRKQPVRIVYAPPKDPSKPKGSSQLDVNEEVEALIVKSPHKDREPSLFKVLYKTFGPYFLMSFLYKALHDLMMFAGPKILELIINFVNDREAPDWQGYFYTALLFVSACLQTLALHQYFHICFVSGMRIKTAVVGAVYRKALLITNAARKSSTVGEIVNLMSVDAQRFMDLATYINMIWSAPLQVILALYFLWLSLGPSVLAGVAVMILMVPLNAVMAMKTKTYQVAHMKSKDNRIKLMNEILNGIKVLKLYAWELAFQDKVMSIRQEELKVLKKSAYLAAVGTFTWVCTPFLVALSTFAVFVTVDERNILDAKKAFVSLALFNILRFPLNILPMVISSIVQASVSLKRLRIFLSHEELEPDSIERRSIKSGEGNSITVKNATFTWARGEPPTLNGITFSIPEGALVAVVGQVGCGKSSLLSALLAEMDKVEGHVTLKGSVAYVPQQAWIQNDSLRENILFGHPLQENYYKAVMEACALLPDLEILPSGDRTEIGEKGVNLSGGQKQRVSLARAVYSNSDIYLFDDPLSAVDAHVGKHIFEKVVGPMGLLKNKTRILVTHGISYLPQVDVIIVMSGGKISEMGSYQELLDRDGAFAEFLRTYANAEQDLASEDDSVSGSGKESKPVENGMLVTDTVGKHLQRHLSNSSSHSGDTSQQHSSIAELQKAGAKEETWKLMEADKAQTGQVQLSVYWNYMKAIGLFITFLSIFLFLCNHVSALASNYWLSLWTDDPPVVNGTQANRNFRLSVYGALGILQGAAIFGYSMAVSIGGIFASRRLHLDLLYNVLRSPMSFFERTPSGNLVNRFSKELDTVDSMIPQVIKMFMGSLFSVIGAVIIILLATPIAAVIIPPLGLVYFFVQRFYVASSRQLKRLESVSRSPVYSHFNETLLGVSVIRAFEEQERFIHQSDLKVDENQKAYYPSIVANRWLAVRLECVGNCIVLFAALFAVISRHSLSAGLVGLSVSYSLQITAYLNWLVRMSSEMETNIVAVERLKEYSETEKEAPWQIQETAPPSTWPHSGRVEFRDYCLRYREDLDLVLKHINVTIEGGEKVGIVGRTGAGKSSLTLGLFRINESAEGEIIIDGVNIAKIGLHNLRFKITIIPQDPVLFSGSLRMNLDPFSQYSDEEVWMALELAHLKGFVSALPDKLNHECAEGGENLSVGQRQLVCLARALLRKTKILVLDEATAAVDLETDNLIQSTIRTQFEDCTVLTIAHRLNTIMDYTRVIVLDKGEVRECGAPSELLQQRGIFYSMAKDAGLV
UniProt P61620: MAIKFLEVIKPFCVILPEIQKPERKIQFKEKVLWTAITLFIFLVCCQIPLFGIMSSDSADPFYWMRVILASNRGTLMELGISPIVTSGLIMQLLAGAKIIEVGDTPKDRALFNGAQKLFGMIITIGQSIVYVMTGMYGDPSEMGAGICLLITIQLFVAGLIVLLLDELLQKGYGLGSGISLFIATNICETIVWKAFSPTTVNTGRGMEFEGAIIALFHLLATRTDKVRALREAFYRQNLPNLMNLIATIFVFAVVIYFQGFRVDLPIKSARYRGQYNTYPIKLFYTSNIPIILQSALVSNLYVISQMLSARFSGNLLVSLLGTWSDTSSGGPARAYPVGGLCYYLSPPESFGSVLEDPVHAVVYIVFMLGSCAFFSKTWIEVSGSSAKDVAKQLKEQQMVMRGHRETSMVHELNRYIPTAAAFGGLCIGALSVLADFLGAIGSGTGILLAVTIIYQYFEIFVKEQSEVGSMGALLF
UniProt O55143: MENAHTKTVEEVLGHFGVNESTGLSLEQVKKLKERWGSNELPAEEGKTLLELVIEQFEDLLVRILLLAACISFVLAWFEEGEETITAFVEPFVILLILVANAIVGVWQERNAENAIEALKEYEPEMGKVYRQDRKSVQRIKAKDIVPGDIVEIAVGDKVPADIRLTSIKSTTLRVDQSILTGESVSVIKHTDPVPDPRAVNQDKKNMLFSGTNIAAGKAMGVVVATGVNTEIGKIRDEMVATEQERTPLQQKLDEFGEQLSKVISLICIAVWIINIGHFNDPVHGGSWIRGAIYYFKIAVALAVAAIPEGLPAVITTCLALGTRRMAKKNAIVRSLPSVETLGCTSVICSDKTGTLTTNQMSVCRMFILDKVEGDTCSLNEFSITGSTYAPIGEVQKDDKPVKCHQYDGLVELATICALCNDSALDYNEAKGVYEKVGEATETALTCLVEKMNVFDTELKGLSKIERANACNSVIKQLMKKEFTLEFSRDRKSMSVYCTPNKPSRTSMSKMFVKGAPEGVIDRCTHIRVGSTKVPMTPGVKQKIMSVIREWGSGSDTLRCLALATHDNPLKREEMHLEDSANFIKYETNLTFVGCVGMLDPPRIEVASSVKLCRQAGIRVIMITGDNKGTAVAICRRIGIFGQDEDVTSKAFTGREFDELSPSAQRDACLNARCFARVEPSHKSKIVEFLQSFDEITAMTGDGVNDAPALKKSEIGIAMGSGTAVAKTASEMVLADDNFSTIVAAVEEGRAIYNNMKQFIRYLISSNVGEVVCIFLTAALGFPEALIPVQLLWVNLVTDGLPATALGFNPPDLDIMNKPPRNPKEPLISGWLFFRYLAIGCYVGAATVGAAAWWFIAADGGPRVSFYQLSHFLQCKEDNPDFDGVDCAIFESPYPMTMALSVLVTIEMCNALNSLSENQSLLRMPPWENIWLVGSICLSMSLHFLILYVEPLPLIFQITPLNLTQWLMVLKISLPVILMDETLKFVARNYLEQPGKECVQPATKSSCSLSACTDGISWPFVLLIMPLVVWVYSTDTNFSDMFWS
UniProt Q9D5T0: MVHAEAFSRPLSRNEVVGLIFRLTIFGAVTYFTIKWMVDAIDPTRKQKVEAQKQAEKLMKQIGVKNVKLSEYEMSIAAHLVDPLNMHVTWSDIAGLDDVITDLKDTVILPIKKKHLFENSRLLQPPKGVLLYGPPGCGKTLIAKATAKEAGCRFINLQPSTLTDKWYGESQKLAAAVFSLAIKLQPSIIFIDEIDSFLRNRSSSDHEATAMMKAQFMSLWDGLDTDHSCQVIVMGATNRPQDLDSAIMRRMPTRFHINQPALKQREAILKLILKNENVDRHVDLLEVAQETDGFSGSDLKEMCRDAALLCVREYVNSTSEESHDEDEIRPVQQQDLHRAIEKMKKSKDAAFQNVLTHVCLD
UniProt Q61102, residues 23-752: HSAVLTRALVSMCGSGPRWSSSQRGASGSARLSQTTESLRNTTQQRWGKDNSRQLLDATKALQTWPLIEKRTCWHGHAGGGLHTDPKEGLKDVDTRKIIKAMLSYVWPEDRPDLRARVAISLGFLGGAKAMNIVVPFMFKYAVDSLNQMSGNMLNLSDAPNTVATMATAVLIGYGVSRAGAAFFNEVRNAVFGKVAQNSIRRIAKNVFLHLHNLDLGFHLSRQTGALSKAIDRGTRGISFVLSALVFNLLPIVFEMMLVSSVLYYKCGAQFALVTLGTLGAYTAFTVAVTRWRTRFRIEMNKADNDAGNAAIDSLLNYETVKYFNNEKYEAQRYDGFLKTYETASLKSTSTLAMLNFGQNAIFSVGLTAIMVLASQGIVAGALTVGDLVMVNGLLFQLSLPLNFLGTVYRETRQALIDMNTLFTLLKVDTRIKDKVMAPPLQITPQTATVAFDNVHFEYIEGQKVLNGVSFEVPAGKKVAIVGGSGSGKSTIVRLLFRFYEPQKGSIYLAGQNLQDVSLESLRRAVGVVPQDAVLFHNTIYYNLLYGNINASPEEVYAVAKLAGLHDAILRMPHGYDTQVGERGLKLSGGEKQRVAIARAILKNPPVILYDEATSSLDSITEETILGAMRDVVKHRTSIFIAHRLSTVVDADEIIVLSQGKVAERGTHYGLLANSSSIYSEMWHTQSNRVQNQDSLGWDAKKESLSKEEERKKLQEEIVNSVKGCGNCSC

No constants are given. Whether binding was seen depends on the method and setting. Binding seen in cells or lysates may run through a third protein. These calls come from enrichment with a bait or labelling near it, and not all partners need be listed.

As to “ABCC1 (mouse) (from UniProt O35379 1-1528)”, the binding result is listed as “binds”.

As to “SEC61A1 (mouse) (from UniProt P61620 1-476)”, the binding entry is listed as “binds”.

Regarding “ATP2A2 (mouse) (from UniProt O55143 1-1044)”, the binding entry is listed as “binds”.

On to “ATAD1 (mouse) (from UniProt Q9D5T0 1-361)”, for which the binding result is on record as “binds”.

Consider “ABCB7 (mouse) (from UniProt Q61102 23-752)”, for which the binding result is “binds”.

B1: SLC25A11 (mouse) (protein, UniProt Q9CR62 1-314)
chain: MAATASPGAGRMDGKPRTSPKSVKFLFGGLAGMGATVFVQPLDLVKNRMQLSGEGAKTREYKTSFHALTSILKTEGLKGIYTGLSAGLLRQATYTTTRLGIYTVLFERLTGADGTPPGFLLKALIGMTAGATGAFVGTPAEVALIRMTADGRLPADQRRGYKNVFNALVRIAREEGVPTLWRGCIPTMARAVVVNAAQLASYSQSKQFLLDSGYFSDNILCHFCASMISGLVTTAASMPVDIVKTRIQNMRMIDGKPEYKNGLDVLLKVVRYEGFFSLWKGFTPYYARLGPHTVLTFIFLEQMNKAYKRLFLSG
For the molecule B1, the binding entry is reported as “binds”.

B2: APOOOL (mouse) (protein, UniProt Q78IK4 28-265)
chain: EEEPKKQLVRPDQLPIYTAPPLHSKYVEEQPGNLQRGFASIRTTTVYYIGWCKSIYLFMKNGVMDTVQFGKDAYVYLKNPPQDFLPKMGVITASGLAGLLSARKGSRFKKIAYPLGLATLGATVCYPAQSVIIAKITGKKAYATSQQIFQAIKSLWTQKSENESLPEPKEESKEGRSDEIHASLPDLKHSVSLPKELASATVIKSESTSGTTQFIPDPKLMDHGQSHPDDKDMYSTRS
With B2, the binding entry was “binds”.

B3: CCDC47 (mouse) (protein, UniProt Q9D024 21-483)
chain: KFDDFEDEEDIVEYDDNDFAEFEDVMEDSVTESPQRVISTEDDEDEATVELEGQDESQEGDFEDADTQEGDTESEPYDDEEFEGYEDKPDTSSNKNKDPITIVDVPAHLQNSWESYYLEILMVTGLLAYIMNYIIGKNKNSRLAQAWFNSHRELLESNFTLVGDDGTNKEATSTGKLNQENEHIYNLWCSGRVCCEGMLIQLRFLKRQDLLNVLARMMRPVSDQVQIKVTMNDEDMDTYVFAVGTRKALLRLQKEMQDLSEFCSDKPKSGAKYGLPDSLAILSEMGEVTEGMMDTKMVHFLTHYADKIESVHFSDQFSGPKIMQEEGQPLKLPDTKRTLLFTFNVPGSGNTYPKDMESLLPLMNMVIYSIDKAKKFRLNREGKQKADKNRARVEENFLKLTHVQRQEAAQSRREEKKRAEKERIMNEEDPEKQRRLEEAALRREQKKLEKKQMKMKQIKVKAM
Turning to B3, the binding result is “binds”.

B4: CISD2 (mouse) (protein, UniProt Q9CQB5 1-135)
chain: MVLDSVARIVKVQLPAYLKQLPVPDSITGFARLTVSDWLRLLPFLGVLALLGYLAVRPFFPKKKQQKDSLINLKIQKENPKVVNEINIEDLCLTKAAYCRCWRSKTFPACDGSHNKHNELTGDNVGPLILKKKEV
In the case of B4, the binding result is recorded as “binds”.

B5: MBOAT7 (mouse) (protein, UniProt Q8CHK3 1-473)
chain: MTPEEWTYLMVLLISIPVGFLFKKAGPGLKRWGAAAVGLGLTLFTCGPHSLHSLITILGTWALIQAQPCSCHALALAWTFSYLLFFRALSLLGLPTPTPFTNAVQLLLTLKLVSLASEVQDLHLAQRKEIASGFHKEPTLGLLPEVPSLMETLSYSYCYVGIMTGPFFRYRTYLDWLEQPFPEAVPSLRPLLRRAWPAPLFGLLFLLSSHLFPLEAVREDAFYARPLPTRLFYMIPVFFAFRMRFYVAWIAAECGCIAAGFGAYPVAAKARAGGGPTLQCPPPSSPEIAASLEYDYETIRNIDCYGTDFCVRVRDGMRYWNMTVQWWLAQYIYKSAPFRSYVLRSAWTMLLSAYWHGLHPGYYLSFMTIPLCLAAEGYLESALRRHLSPGGQKAWDWVHWFLKMRAYDYMCMGFVLLSMADTLRYWASIYFWVHFLALACLGLGLVLGGGSPSKRKTPSQATSSQAKEKLREE
Consider B5, for which the binding entry is “binds”.

B6: ABCB10 (mouse) (protein, UniProt Q9JI39 83-715)
chain: AGPRAAHPLFARLQGAAATGVRDLGNDSQRRPAATGRSEVWKLLGLVRPERGRLSAAVGFLAVSSVITMSAPFFLGRIIDVIYTNPSEGYGDSLTRLCAVLTCVFLCGAAANGIRVYLMQSSGQSIVNRLRTSLFSSILRQEVAFFDKTRTGELINRLSSDTALLGRSVTENLSDGLRAGAQASVGVGMMFFVSPSLATFVLSVVPPISVLAVIYGRYLRKLSKATQDSLAEATQLAEERIGNIRTIRAFGKEMTEVEKYTGRVDQLLQLAQKEALARAGFFGAAGLSGNLIVLSVLYKGGLLMGSAHMTVGELSSFLMYAFWVGLSIGGLSSFYSELMKGLGAGGRLWELLERQPRLPFNEGMVLDEKTFQGALEFRNVHFTYPARPEVSVFQDFSLSIPSGSVTALVGPSGSGKSTVVSLLLRLYDPNSGTVSLDGHDIRQLNPVWLRSKIGTVSQEPVLFSCSVAENIAYGADNLSSVTAQQVERAAEVANAAEFIRSFPQGFDTVVGEKGILLSGGQKQRIAIARALLKNPKILLLDEATSALDAENEHLVQEALDRLMEGRTVLIIAHRLSTIKNANFVAVLDHGKICEHGTHEELLLKPNGLYRKLMNKQSFLSYNGAEQFLEPARA
Turning to B6, the binding entry is “binds”.

B7: heme oxygenase 2 (mouse) (protein, UniProt O70252 1-315)
chain: MSSEVETSEGVDESEKNSMAPEKENHTKMADLSELLKEGTKEAHDRAENTQFVKDFLKGNIKKELFKLATTALYFTYSALEEEMDRNKDHPAFAPLYFPTELHRKAALIKDMKYFFGENWEEQVKCSEAAQKYVDRIHYVGQNEPELLVAHAYTRYMGDLSGGQVLKKVAQRALKLPSTGEGTQFYLFEHVDNAQQFKQFYRARMNALDLNLKTKERIVEEANKAFEYNMQIFSELDQAGSMLARETLEDGLPVHDGKGDIRKCPFYAAQPDKGTLGGSNCPFQTTVAVLRKPSLQLILAASVALVAGLLAWYYM
As for B7, the binding result was “binds”.

B8: MFRN2 (mouse) (protein, UniProt Q8R0Z5 1-364)
chain: MELEGRSAGGVAGGPAAGPGRSPGESALLDGWLQRGVGRGAGGGEAGAYQPPVRLDPESGPEYEALPAGATVTTHMVAGAVAGILEHCVMYPIDCVKTRMQSLQPDPAARYRNVLEALWRIMRTEGLWRPMRGLNVTATGAGPAHALYFACYEKLKKTLSDVIHPGGNSHIANGAAGCVATLLHDAAMNPAEVVKQRMQMYNSPYHRVTDCVRAVWQNEGAGAFYRSYTTQLTMNVPFQAIHFMTYEFLQEHFNPQRRYNPSSHVLCGACAGAVAAAATTPLDVCKTLLNTQESLALNSNITGHITGMASAFRTVYQVGGVTAYFRGVQARVIYQIPSTAIAWSVYEFFKYLITKRQEEWRAGK
In the case of B8, the binding entry is recorded as “binds”.

B9: DNAJC11 (mouse) (protein, UniProt Q5U458 1-559)
chain: MATALSEEELDNEDYYSLLNVRREASSEELKAAYRRLCMLYHPDKHRDPELKSQAERLFNLVHQAYEVLSDPQTRAIYDIYGKRGLEMEGWEVVERKRTPAEIREEFERLQREREERRLQQRTNPKGTISVGVDATDLFDRYDEEYEDVSGSGFPQIEINKMHISQSIEAPLTATDTAILSGSLSTQNGNGGGSVNFALRRVTSAKGWGELEFGAGDLQGPLFGLKLFRNLTPRCFVTTNCALQFSSRGIRPGLTTVLARNLDKNTVGYLQWRWGIQSAMNTSIVRDTKTCHFTVALQLGIPHSFALISYQHKFQDDDQTRVKGSLKAGFFGTIVEYGAERKISRHSVLGAAVSIGVPQGVSLKVKLNRASQTYFFPIHLTDQLLPSAVFYATVGPLVVYLAVHRLIIRPYLRAQKEKELEKQRENTASDILQKKQEAEAAVRLMQESVRRIIEAEESRMGLIIVNAWYGKFVNDKSRKNEKVKVIDVTVPLQCLVKDSKLILTEASKAGLPGFYDPCVGEEKSLRVLYQFRGVLHQVMVPDSEALRIPKQSHRIDTDG
As to B9, the binding result is listed as “binds”.

B10: HM13 (mouse) (protein, UniProt Q9D8V0 1-378)
chain: MDSAVSDPHNGSAEAGTPANGTTRPPSTPEGIALAYGSLLLMALLPIFFGALRSVRCARGKSSSDMPETITSRDAARFPIIASCTLLGLYLFFKIFSQEYINLLLSMYFFVLGILALSHTISPFMNKFFPANFPNRQYQLLFTQGSGENKEEIINYEFDTKDLVCLGLSSVVGVWYLLRKHWIANNLFGLAFSLNGVELLHLNNVSTGCILLGGLFIYDIFWVFGTNVMVTVAKSFEAPIKLVFPQDLLEKGLEADNFAMLGLGDIVIPGIFIALLLRFDISLKKNTHTYFYTSFAAYIFGLGLTIFIMHIFKHAQPALLYLVPACIGFPVLVALAKGEVAEMFSYEESNPKDPAAETESKEESTEASASKRLEKKEK
Consider B10, for which the binding entry is “binds”.

B11: progesterone receptor membrane protein 2 (mouse) (protein, UniProt Q80UU9 1-217)
chain: MAAGDGDVKLSTLGSGGESGGDGSPGGAGATAARSSWVAALLATGGEMLLNVALVALVLLGAYRLWVRWGRRGLCSGPGAGEESPAATLPRMKKRDFSLEQLRQYDGARTPRILLAVNGKVFDVTKGSKFYGPAGPYGIFAGRDASRGLATFCLDKDALRDEYDDLSDLNAVQMESVREWEMQFKEKYDYVGRLLKPGEEPSEYTDEEDTKDHSKQD
B11: the binding result is recorded as “binds”.

B12: SAMM50 (mouse) (protein, UniProt Q8BGH2 1-469)
chain: MGTVHARSLEPLPSSGTDFGALGEEAEFVEVEPEAKQEILENKDVVVQHVHFDGLGRTKDDIIICEIGEVFKAKNLIEVMRRSHEAREKLLRLGIFRQVDVLIDTCHGEDALPNGLDVTFEVTELRRLTGSYNTMVGNNEGSMVLGLKLPNLLGRAEKVTFQFSYGTKETSYGLSFFKPQPGNFERNFSVNLYKVTGQFPWSSLRETDRGVSAEYSFPLWKTSHTVKWEGVWRELGCLSRTASFAVRKESGHSLKSSLSHAMVIDSRNSSILPRRGALFKVNQELAGYTGGDVSFIKEDFELQLNKPLALDSVFSTSLWGGMLVPIGDKPSSIADRFYLGGPTSVRGFSMHSIGPQSEGDYLGGEAYWAGGLHLYTPLPFRPGQGGFGELFRTHFFLNAGNLCNLNYGEGPKAHIRKLAECIRWSYGAGVVLRLGNIARLELNYCIPMGVQGGDRICDGVQFGAGIRFL
With B12, the binding result was “binds”.

Source of the values: paper PMC12973532.
